{"source": "PubChem BioAssay AID1259254 (NCATS, 2017)", "aim": "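Gene knock-downs that lead to re-replication, shown by excess G2 DNA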 (primary screen)", "cell system": "human HCT116 colorectal cancer cells", "reagent": "single siRNA against human genes", "duration": "3 days", "measurement": "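Nuclei stained with Hoechst and imaged; cell-cycle phase assigned by DNA content; G2 share scaled per plate, non-targeting siRNA 0%, GMNN siRNA 100%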", "scale": "G2 robust z-score and G2 cells, % of GMNN control: higher = more G2 cells, more excess DNA replication", "rule for the call": "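Active siRNAs have a G2 robust z of 5 or more median absolute deviations over the median, which in these data means about 38% or higher of GMNN control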", "note": "Here is one part, drawn at random, of about 59,000 deposited reagents. About 1,550 of all reagents (2.6%) were called active. 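G2 share is only a proxy for re-replication; each gene was hit by three separate siRNAs, and active genes were retested.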 Reagents against one gene are numbered here. Further read-outs or replicates are left out here. The record does not give: the amount of reagent."}
{"Gene": "DNAAF19", "reagent": 1, "G2 robust z-score": 0.54, "G2 cells, % of GMNN control": 6.77, "Call": "inactive"}
{"Gene": "DNAAF19", "reagent": 2, "G2 robust z-score": 0.545, "G2 cells, % of GMNN control": 6.8, "Call": "inactive"}
{"Gene": "DNAAF19", "reagent": 3, "G2 robust z-score": -0.386, "G2 cells, % of GMNN control": 0.254, "Call": "inactive"}
{"Gene": "RPS25P4", "reagent": 1, "G2 robust z-score": 0.67, "G2 cells, % of GMNN control": 7.68, "Call": "inactive"}
{"Gene": "RPS25P4", "reagent": 2, "G2 robust z-score": -0.75, "G2 cells, % of GMNN control": -2.31, "Call": "inactive"}
{"Gene": "RPS25P4", "reagent": 3, "G2 robust z-score": -0.729, "G2 cells, % of GMNN control": -2.16, "Call": "inactive"}
{"Gene": "CHST10", "reagent": 1, "G2 robust z-score": 1.48, "G2 cells, % of GMNN control": 13.4, "Call": "inactive"}
{"Gene": "CHST10", "reagent": 2, "G2 robust z-score": 0, "G2 cells, % of GMNN control": 2.97, "Call": "inactive"}
{"Gene": "CHST10", "reagent": 3, "G2 robust z-score": 0.198, "G2 cells, % of GMNN control": 4.36, "Call": "inactive"}
{"Gene": "TEX9", "reagent": 1, "G2 robust z-score": -0.428, "G2 cells, % of GMNN control": -0.0468, "Call": "inactive"}
{"Gene": "TEX9", "reagent": 2, "G2 robust z-score": 0.583, "G2 cells, % of GMNN control": 7.07, "Call": "inactive"}
{"Gene": "TEX9", "reagent": 3, "G2 robust z-score": -0.709, "G2 cells, % of GMNN control": -2.02, "Call": "inactive"}

Targets above whose target name starts with T or t (3):
{"Gene": "TEX9", "reagent": 1, "G2 robust z-score": -0.428, "G2 cells, % of GMNN control": -0.0468, "Call": "inactive"}
{"Gene": "TEX9", "reagent": 2, "G2 robust z-score": 0.583, "G2 cells, % of GMNN control": 7.07, "Call": "inactive"}
{"Gene": "TEX9", "reagent": 3, "G2 robust z-score": -0.709, "G2 cells, % of GMNN control": -2.02, "Call": "inactive"}
